Drawing on the supplement of paper PMC6411743, this text covers NP40-soluble protein abundance for 14 targets.

Sequences of proteins named here, by UniProt entry; tags and fusion partners are left off. A change or cut given only in a name is not applied to a line headed by its entry.
UniProt Q6P2E9: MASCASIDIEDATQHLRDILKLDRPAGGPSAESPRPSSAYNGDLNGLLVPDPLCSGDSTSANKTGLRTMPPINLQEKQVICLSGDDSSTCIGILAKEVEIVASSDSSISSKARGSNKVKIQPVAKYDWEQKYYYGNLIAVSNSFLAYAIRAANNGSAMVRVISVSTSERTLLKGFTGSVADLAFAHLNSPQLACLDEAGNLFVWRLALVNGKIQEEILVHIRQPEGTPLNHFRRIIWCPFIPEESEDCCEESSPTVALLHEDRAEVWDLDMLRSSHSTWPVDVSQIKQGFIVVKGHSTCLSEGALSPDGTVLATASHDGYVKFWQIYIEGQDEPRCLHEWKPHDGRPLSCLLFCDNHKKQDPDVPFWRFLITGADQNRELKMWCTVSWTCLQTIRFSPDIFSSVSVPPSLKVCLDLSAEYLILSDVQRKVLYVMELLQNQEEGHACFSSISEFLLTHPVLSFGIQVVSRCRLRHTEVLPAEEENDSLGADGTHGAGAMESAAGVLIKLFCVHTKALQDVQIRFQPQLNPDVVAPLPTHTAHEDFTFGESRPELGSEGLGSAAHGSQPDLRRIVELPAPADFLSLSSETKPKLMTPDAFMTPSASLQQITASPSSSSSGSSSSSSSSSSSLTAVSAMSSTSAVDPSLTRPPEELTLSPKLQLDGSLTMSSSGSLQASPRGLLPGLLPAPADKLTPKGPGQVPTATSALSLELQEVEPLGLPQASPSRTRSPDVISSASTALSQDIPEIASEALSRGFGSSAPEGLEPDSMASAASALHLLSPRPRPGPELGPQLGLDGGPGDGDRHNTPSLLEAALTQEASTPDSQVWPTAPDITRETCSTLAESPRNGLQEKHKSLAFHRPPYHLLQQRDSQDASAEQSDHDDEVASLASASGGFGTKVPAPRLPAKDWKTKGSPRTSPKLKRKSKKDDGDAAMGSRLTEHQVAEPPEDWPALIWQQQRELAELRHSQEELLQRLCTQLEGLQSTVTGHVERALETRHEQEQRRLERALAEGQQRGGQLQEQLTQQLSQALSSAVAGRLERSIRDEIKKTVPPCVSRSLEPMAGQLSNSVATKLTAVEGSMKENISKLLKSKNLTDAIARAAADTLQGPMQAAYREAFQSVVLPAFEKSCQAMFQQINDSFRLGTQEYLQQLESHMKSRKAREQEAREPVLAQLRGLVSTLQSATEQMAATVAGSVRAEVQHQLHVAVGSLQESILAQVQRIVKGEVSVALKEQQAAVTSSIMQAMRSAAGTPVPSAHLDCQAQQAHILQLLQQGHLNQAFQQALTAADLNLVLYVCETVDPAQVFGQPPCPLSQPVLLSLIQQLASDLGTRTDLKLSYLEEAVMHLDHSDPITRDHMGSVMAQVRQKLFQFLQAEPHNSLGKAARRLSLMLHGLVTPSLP
UniProt Q6P4F7: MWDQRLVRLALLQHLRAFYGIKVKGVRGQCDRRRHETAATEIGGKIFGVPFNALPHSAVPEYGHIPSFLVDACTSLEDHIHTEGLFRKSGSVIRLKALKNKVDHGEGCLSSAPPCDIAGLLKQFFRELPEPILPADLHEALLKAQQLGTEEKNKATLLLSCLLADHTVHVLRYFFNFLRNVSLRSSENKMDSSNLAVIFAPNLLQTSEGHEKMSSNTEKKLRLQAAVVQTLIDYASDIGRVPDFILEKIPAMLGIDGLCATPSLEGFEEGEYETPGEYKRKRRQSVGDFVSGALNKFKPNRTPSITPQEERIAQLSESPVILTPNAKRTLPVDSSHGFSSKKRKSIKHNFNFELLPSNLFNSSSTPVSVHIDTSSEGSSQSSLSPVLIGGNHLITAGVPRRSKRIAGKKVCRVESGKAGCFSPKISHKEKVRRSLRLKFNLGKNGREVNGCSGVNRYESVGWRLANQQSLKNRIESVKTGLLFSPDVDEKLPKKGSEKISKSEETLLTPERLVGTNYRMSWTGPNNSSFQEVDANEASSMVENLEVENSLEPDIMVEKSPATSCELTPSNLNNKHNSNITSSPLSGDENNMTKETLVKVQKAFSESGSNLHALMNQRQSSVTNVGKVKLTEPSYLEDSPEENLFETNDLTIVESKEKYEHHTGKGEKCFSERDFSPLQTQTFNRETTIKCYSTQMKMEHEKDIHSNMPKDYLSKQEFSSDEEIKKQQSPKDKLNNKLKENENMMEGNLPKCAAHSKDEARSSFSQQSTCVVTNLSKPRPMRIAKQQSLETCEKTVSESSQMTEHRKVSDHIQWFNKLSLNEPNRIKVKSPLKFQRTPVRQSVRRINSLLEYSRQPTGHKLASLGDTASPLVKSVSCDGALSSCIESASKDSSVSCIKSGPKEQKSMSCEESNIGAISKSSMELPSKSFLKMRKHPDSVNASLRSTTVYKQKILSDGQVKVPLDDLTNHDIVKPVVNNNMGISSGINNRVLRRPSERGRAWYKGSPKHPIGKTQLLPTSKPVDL
UniProt Q6PCB7: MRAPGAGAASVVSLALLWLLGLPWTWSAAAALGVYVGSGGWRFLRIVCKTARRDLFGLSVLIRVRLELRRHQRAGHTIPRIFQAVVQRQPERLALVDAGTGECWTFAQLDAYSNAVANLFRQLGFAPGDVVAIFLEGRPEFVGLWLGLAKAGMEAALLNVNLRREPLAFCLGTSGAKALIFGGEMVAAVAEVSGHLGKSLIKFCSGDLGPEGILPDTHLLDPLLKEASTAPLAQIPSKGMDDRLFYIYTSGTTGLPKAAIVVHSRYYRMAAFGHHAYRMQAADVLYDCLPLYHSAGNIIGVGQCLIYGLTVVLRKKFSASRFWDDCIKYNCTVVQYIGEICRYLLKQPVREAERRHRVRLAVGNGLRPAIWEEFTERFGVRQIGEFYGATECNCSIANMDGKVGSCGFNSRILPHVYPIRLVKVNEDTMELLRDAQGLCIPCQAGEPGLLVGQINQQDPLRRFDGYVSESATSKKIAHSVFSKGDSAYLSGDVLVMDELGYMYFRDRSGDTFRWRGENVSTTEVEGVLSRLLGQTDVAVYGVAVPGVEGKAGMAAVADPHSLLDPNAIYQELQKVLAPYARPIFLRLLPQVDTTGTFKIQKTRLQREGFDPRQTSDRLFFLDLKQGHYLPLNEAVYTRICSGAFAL
UniProt Q6NSJ2: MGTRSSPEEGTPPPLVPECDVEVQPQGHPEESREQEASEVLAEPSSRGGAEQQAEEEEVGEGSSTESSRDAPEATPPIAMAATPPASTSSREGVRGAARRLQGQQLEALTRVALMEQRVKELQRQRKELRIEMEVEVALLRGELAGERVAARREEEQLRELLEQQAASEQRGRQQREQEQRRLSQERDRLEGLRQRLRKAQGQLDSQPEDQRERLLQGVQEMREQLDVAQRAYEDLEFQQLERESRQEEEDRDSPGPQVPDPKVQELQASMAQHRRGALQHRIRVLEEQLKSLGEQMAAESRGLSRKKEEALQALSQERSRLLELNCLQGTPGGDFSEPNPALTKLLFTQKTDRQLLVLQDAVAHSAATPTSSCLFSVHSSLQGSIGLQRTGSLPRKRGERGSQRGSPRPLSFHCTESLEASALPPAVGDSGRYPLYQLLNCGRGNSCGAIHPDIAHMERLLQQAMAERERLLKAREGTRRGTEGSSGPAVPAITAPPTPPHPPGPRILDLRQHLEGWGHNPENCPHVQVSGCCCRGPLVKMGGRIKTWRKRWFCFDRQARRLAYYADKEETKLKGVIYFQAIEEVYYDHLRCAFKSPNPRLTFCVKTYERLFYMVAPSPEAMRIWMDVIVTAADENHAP
UniProt Q6PJ69: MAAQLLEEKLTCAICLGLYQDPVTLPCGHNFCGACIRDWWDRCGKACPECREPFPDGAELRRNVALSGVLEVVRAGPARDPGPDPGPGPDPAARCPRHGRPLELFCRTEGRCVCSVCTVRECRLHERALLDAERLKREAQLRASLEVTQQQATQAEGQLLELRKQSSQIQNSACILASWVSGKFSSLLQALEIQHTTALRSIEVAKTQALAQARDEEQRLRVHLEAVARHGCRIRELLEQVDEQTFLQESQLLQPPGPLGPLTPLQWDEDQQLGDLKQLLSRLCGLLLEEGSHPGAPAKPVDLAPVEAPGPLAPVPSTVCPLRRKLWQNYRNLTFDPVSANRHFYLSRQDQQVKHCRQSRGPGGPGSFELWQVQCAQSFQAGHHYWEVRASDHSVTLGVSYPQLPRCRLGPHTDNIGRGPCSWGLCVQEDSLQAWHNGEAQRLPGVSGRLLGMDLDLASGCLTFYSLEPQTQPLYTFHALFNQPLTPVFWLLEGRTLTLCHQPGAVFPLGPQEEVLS
UniProt Q63HQ0: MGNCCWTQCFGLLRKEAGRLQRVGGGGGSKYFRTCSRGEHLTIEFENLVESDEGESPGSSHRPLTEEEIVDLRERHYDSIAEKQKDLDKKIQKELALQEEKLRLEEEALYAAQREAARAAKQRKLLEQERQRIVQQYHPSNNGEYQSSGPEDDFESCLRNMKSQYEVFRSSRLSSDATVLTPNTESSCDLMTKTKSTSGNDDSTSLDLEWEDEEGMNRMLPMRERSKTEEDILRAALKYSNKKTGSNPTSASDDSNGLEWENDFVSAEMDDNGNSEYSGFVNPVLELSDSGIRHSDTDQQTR
UniProt Q6NUQ4: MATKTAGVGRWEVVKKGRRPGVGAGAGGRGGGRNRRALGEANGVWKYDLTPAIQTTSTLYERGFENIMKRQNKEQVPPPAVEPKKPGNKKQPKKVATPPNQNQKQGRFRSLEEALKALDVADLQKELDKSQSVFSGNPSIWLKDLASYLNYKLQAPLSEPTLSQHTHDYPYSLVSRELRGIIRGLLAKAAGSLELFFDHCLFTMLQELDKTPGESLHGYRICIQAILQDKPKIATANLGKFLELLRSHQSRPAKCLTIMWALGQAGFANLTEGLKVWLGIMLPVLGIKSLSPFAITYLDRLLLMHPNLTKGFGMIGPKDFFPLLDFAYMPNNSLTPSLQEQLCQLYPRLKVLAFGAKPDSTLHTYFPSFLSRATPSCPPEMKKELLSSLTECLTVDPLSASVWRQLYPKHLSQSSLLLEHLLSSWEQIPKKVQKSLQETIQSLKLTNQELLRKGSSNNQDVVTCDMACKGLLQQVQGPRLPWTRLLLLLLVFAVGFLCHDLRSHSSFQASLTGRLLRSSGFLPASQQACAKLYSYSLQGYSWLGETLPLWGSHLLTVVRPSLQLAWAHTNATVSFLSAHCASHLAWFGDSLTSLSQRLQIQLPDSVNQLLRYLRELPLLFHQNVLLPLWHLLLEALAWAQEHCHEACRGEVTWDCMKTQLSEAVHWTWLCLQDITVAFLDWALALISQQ
UniProt Q7KZF4: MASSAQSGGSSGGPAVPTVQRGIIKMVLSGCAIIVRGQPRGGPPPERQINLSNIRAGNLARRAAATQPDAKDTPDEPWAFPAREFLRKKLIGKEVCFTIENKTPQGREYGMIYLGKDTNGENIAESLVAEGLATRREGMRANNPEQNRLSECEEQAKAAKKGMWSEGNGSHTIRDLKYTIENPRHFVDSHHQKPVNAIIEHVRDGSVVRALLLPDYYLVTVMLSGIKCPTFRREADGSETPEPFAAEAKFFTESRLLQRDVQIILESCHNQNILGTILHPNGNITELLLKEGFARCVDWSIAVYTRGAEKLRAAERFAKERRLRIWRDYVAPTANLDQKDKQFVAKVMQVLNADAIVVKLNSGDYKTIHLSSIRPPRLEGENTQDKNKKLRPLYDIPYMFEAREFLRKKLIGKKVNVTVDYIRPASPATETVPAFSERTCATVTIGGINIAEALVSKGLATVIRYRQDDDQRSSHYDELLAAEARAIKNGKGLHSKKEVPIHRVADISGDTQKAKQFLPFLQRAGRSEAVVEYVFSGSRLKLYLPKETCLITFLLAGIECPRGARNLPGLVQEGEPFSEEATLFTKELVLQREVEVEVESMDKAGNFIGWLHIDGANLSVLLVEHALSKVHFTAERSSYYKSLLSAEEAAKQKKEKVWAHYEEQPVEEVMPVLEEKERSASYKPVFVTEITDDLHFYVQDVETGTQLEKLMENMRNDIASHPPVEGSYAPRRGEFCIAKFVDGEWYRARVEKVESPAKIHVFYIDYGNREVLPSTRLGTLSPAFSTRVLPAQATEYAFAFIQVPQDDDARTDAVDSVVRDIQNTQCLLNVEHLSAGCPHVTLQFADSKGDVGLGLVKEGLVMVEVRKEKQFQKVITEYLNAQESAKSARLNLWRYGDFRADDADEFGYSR
UniProt Q6N063: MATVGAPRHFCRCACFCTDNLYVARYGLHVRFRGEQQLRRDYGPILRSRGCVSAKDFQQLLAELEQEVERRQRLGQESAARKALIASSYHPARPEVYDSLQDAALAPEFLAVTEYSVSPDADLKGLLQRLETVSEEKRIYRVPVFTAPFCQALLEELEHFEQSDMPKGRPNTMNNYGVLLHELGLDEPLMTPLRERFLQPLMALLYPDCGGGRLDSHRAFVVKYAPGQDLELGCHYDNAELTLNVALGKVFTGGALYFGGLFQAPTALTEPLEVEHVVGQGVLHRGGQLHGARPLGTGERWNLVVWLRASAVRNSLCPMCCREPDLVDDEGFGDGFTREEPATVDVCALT

± gives the standard deviation of the averaged measurements. Only a part is listed here, and it is no random draw.

Compound in the test: Nc1ncnc2c1ncn2[C@@H]1O[C@H](COP(=O)(O)OP(=O)(O)NP(=O)(O)O)[C@@H](O)[C@H]1O [adenylyl imidodiphosphate]
Briefly: NP40-soluble protein abundance relative to vehicle (solubility fold change) (ratio); higher = more soluble protein in presence of AMP-PNP. Particulars: concentration: 10mM. A digest of the protocol: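 Across three independent experiments, values are fold changes against the detergent-processed vehicle for each replicate, based on vsn-normalised intensities. The samples were Jurkat crude lysate treated with eight concentrations (0.1 to 10 mM) for 10 min at room temperature and then 3 min at 37 °C. Lysate was solubilised with 0.8% NP40 and benzonase, ultracentrifuged, and the supernatant analysed by TMT-labelled LC-MS/MS.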
As to UniProt Q7Z2W9 and related entries, the NP40-soluble protein abundance was found to be 0.957 ± 0.011.

On to EDC4 (UniProt Q6P2E9), for which the NP40-soluble protein abundance was 0.957 ± 0.043. With ARHGAP11A (UniProt Q6P4F7) the figure was 0.964 ± 0.015; with UniProt Q6PCB7 and related entries, 0.9999 ± 0.0099.

In the case of PHLDB3 (UniProt Q6NSJ2), the NP40-soluble protein abundance is 0.995 ± 0.013.

Consider TRIM65 (UniProt Q6PJ69), for which the NP40-soluble protein abundance was 0.96 ± 0.021. For UniProt Q5VWN6, the NP40-soluble protein abundance is 1.03 ± 0.015. On to FASTKD5 (UniProt Q7L8L6), for which the NP40-soluble protein abundance amounted to 0.966 ± 0.047. Consider UniProt Q63HQ0, for which the NP40-soluble protein abundance was 0.942 ± 0.017. For UniProt Q6P1N0 and related entries, the NP40-soluble protein abundance is 1.02 ± 0.028. With UniProt Q6NUQ4 and related entries the figure was 1.16 ± 0.022; with UniProt Q6R327 and related entries, 0.968 ± 0.049; with SND1 (UniProt Q7KZF4), 1.28 ± 0.059.

Take OGFOD2 (UniProt Q6N063): the NP40-soluble protein abundance stood at 0.929 ± 0.032.
